Test results as given in PubChem BioAssay AID248 (DTP/NCI, 2004).
The list is a part of this screen's results and no random one: it gathers tests that were run many times, whatever their T/C, doses with no T/C, and many T/C values between a quarter and a half above the control. Other doses and runs of a compound stand elsewhere. T/C gives the treated animals as a percentage of the vehicle group. Some entries give survivors of the animals treated and no T/C: the source files T/C as zero there, which appears to mark a toxic dose or a test without result, not a measured value. Some survivor counts are full or nearly so, which does not show that the dose was tolerated: the source hardly ever lists a survival T/C far under the control, and the zero likely stands for such cases as well. Counts of survivors are from the toxicity check (mostly the fifth day) where no day follows; animals may have died later. Schedules are NCI's codes, read here as Q, the interval in days (D) or hours (H), X, the number of doses. Some schedules carry Z or #; the key to these is not given. Where survival is the endpoint, this PubChem deposit counts one and a half times the control or more as active, and values a quarter to a half above the control carry no call in these data; other NCI protocols may use other cut-offs. Some T/C values carry the count of animals alive at the toxicity check (mostly the fifth day); without a count, all were alive then.

Test system: L1210 leukemia ip in BDF1 mice, survival T/C
Assay: NCI In Vivo Anticancer Drug Screen. Data for tumor model L1210 Leukemia (intraperitoneal) in B6D2F1 (BDF1) mice
Conditions: T/C endpoint: mean survival time, higher T/C = longer survival
[1] = dose: 100.0 mg/kg/injection, schedule: Q01DX009 (ip), vehicle: Klucel (hydroxypropylcellulose) (HPC)
[2] = dose: 200.0 mg/kg/injection, schedule: Q01DX009 (ip), vehicle: Klucel (hydroxypropylcellulose) (HPC)
[3] = dose: 75.0 mg/kg/injection, schedule: Q01DX001 (ip), vehicle: other
[4] = dose: 150.0 mg/kg/injection, schedule: Q01DX001 (ip), vehicle: other
[5] = dose: 300.0 mg/kg/injection, schedule: Q01DX001 (ip), vehicle: other
[6] = dose: 400.0 mg/kg/injection, schedule: Q04DX003 (ip), vehicle: Klucel (hydroxypropylcellulose) (HPC)
[7] = dose: 300.0 mg/kg/injection, schedule: Q01DX001 (ip), vehicle: saline
[8] = dose: 400.0 mg/kg/injection, schedule: Q01DX001 (ip), vehicle: saline
[9] = dose: 400.0 mg/kg/injection, schedule: Q01DX009 (ip), vehicle: saline with Tween-80
[10] = dose: 200.0 mg/kg/injection, schedule: Q01DX009 (ip), vehicle: saline with Tween-80
[11] = dose: 400.0 mg/kg/injection, schedule: Q04DX003 (ip), vehicle: saline with Tween-80
[12] = dose: 100.0 mg/kg/injection, schedule: Q04DX003 (ip), vehicle: saline with Tween-80
[13] = dose: 200.0 mg/kg/injection, schedule: Q04DX003 (ip), vehicle: saline with Tween-80
[14] = dose: 100.0 mg/kg/injection, schedule: Q01DX009 (ip), vehicle: saline with Tween-80

**Q.** How did the survivor count [1] turn out when `Cc1cc(C(=O)NNCc2ccccc2)no1` was run?
**A.** 6 of 6

**Q.** And the survivor count [2]?
**A.** 2 of 6

**Q.** `C#CC(C)(O)c1ccccc1` (stereo not given) was tested. Which survivor count (dose: 400.0 mg/kg/injection, schedule: Q01DX009 (ip), vehicle: Klucel (hydroxypropylcellulose) (HPC)) did it give?
**A.** 3 of 6

**Q.** Which survivor count [3] does the source give for `OC(CC(O)(c1ccccc1)c1ccccc1)(c1ccccc1)c1ccccc1` here?
**A.** 3 of 6

**Q.** What about the survivor count [4] of the same molecule?
**A.** 0 of 6

**Q.** And the survivor count [5]?
**A.** 0 of 6

**Q.** With `S=C=NCC(Br)CBr` (stereo not given) as the molecule, how does the survivor count (dose: 50.0 mg/kg/injection, schedule: Q04DX003 (ip), vehicle: Klucel (hydroxypropylcellulose) (HPC)) read?
**A.** 3 of 6

**Q.** And the survivor count (dose: 100.0 mg/kg/injection, schedule: Q04DX003 (ip), vehicle: Klucel (hydroxypropylcellulose) (HPC))?
**A.** 5 of 6

**Q.** What about the survivor count (dose: 200.0 mg/kg/injection, schedule: Q04DX003 (ip), vehicle: Klucel (hydroxypropylcellulose) (HPC)) of the same molecule?
**A.** 6 of 6

**Q.** And the survivor count [6]?
**A.** 5 of 6

**Q.** Which T/C (dose: 7.5 mg/kg/injection, schedule: Q01DX009 (ip), vehicle: other) does the source give for `NC(=O)c1[nH]cnc1/N=N/N(CCF)CCF` here?
**A.** 148 % of control

**Q.** And the T/C (dose: 20.0 mg/kg/injection, schedule: Q01DX001 (ip), vehicle: other)?
**A.** 127 % of control

**Q.** And the survivor count (dose: 40.0 mg/kg/injection, schedule: Q01DX001 (ip), vehicle: other)?
**A.** 3 of 5

**Q.** What about the survivor count [3] of the same molecule?
**A.** 0 of 6

**Q.** And the survivor count [4]?
**A.** 0 of 6

**Q.** And the survivor count [5]?
**A.** 0 of 6

**Q.** `CCCCCCC(C)C(COC(=O)c1ccc([N+](=O)[O-])cc1)NCC` (stereo not given) was tested. Which survivor count [7] did it give?
**A.** 3 of 6

**Q.** Which results are given for `C1=COC(/C=N/Nc2nnc(N/N=C/C3CCC=CO3)c3ccccc23)CC1` (stereo not given)?
**A.** survivor count (dose: 50.0 mg/kg/injection, schedule: Q01DX001 (ip), vehicle: saline): 0 of 4; survivor count (dose: 80.0 mg/kg/injection, schedule: Q01DX001 (ip), vehicle: saline): 1 of 4; survivor count (dose: 100.0 mg/kg/injection, schedule: Q01DX001 (ip), vehicle: saline): 0 of 4; survivor count (dose: 200.0 mg/kg/injection, schedule: Q01DX001 (ip), vehicle: saline): 0 of 4; survivor count [8]: 0 of 4

**Q.** `Cc1ccc(S(=O)(=O)OCCOS(=O)(=O)c2ccc(C)cc2)cc1` was tested. Which survivor count [6] did it give?
**A.** 6 of 6

**Q.** `CC(C)c1ccc(/C=C\C(=O)c2ccc(-c3ccccc3)cc2)cc1` was tested. Which T/C [9] did it give?
**A.** 138 % of control [2 of 3 alive]

**Q.** For `Clc1ccc2c[n+]3ccccc3cc2c1`, which survivor count (dose: 8.0 mg/kg/injection, schedule: Q01DX Z (ip), vehicle: carboxymethylcellulose (CMC)) is on record?
**A.** 0 of 6

**Q.** What about the survivor count (dose: 16.0 mg/kg/injection, schedule: Q01DX Z (ip), vehicle: carboxymethylcellulose (CMC)) of the same molecule?
**A.** 0 of 6

**Q.** And the survivor count (dose: 32.0 mg/kg/injection, schedule: Q01DX Z (ip), vehicle: carboxymethylcellulose (CMC))?
**A.** 0 of 6

**Q.** And the survivor count (dose: 64.0 mg/kg/injection, schedule: Q01DX Z (ip), vehicle: carboxymethylcellulose (CMC))?
**A.** 0 of 6

**Q.** `CCOC(=O)c1c(NC(=O)C(F)(F)F)[nH]c(SSc2[nH]c(NC(=O)C(F)(F)F)c(C(=O)OCC)c2C(=O)OCC)c1C(=O)OCC` was tested. Which survivor count [10] did it give?
**A.** 1 of 6

**Q.** And the survivor count [11]?
**A.** 4 of 6

**Q.** With `ClCCCCOCC1CCCO1` (stereo not given) as the molecule, how does the survivor count [9] read?
**A.** 5 of 6

**Q.** Which results are given for `c1ccc([C@H]2O[C@@H]2c2ccccc2)cc1`?
**A.** survivor count [12]: 2 of 6; survivor count [13]: 0 of 6; survivor count [11]: 0 of 6

**Q.** Which survivor count (dose: 200.0 mg/kg/injection, schedule: Q04DX002 (ip), vehicle: saline) does the source give for `O=C(Nc1ccc(C(=O)O)cc1)Nc1cccc(Cl)c1` here?
**A.** 1 of 3

**Q.** What about the survivor count (dose: 400.0 mg/kg/injection, schedule: Q04DX002 (ip), vehicle: saline) of the same molecule?
**A.** 0 of 3

**Q.** How did the survivor count [8] turn out when `Fc1cccc(N2CCOCC2)c1` was run?
**A.** 2 of 4

**Q.** What does the source list for `Clc1ccc2nnnn2n1`?
**A.** T/C [14]: 125 % of control; T/C [10]: 136 % of control [5 of 6 alive]; T/C (dose: 250.0 mg/kg/injection, schedule: Q04DX003 (ip), vehicle: saline): 127 % of control; survivor count [9]: 0 of 6

**Q.** How did the survivor count (dose: 400.0 mg/kg/injection, schedule: Q04DX003 (ip), vehicle: other) turn out when `CC[NH-].CC[NH-].[Br][Pt+2][Br]` was run?
**A.** 5 of 6

**Q.** `CCCc1c2cc(OC)c(OC)cc2cc2c3cc(OC)c(OC)cc3cc[n+]12` (tested in a mixture with another compound) was tested. Which survivor count [1] did it give?
**A.** 4 of 6

**Q.** What about the survivor count [2] of the same molecule?
**A.** 0 of 6

**Q.** And the survivor count [6]?
**A.** 3 of 6

**Q.** What does the source list for `CN(C)C12CCCCC1S(=O)(=O)C2` (stereo not given)?
**A.** survivor count (dose: 40.0 mg/kg/injection, schedule: Q01DX009 (ip), vehicle: saline): 0 of 6; survivor count (dose: 75.0 mg/kg/injection, schedule: Q01DX009 (ip), vehicle: saline): 0 of 6; survivor count (dose: 150.0 mg/kg/injection, schedule: Q01DX009 (ip), vehicle: saline): 0 of 6; survivor count (dose: 300.0 mg/kg/injection, schedule: Q01DX009 (ip), vehicle: saline): 0 of 6

**Q.** `Nc1ncnc(N)c1NC(=O)Cc1cccc([N+](=O)[O-])c1` was tested. Which survivor count (dose: 100.0 mg/kg/injection, schedule: Q01DX001 (ip), vehicle: Klucel (hydroxypropylcellulose) (HPC)) did it give?
**A.** 3 of 6

**Q.** What about the survivor count (dose: 200.0 mg/kg/injection, schedule: Q01DX001 (ip), vehicle: Klucel (hydroxypropylcellulose) (HPC)) of the same molecule?
**A.** 0 of 6

**Q.** For `CCCCCCCCCCCCCCCc1cc(O)cc(O)c1`, which survivor count (dose: 100.0 mg/kg/injection, schedule: Q01DX001 (ip), vehicle: other) is on record?
**A.** 4 of 4

**Q.** `CCN(CC)C1=C(Cl)C(=O)C(=O)c2cccnc21` was tested. Which survivor count (dose: 75.0 mg/kg/injection, schedule: Q04DX003 (ip), vehicle: saline) did it give?
**A.** 2 of 6

**Q.** And the survivor count (dose: 150.0 mg/kg/injection, schedule: Q01DX001 (ip), vehicle: saline)?
**A.** 0 of 6

**Q.** What about the survivor count [7] of the same molecule?
**A.** 0 of 6

**Q.** With `S=C=Nc1ccc(Cl)c2ccccc12` as the molecule, how does the survivor count (dose: 100.0 mg/kg/injection, schedule: Q04DX002 (ip), vehicle: saline with Tween-80) read?
**A.** 3 of 3

**Q.** What about the survivor count (dose: 200.0 mg/kg/injection, schedule: Q04DX002 (ip), vehicle: saline with Tween-80) of the same molecule?
**A.** 1 of 3

**Q.** What about the survivor count (dose: 400.0 mg/kg/injection, schedule: Q04DX002 (ip), vehicle: saline with Tween-80) of the same molecule?
**A.** 1 of 3

**Q.** How did the survivor count (dose: 12.5 mg/kg/injection, schedule: Q01DX009 (ip), vehicle: saline with Tween-80) turn out when `COc1cc(C(=O)N(CCCl)N=O)cc(OC)c1OC` was run?
**A.** 6 of 6

**Q.** What about the survivor count (dose: 25.0 mg/kg/injection, schedule: Q01DX009 (ip), vehicle: saline with Tween-80) of the same molecule?
**A.** 6 of 6

**Q.** What about the survivor count (dose: 50.0 mg/kg/injection, schedule: Q01DX009 (ip), vehicle: saline with Tween-80) of the same molecule?
**A.** 4 of 6

**Q.** What about the survivor count [14] of the same molecule?
**A.** 0 of 6

**Q.** And the survivor count [13]?
**A.** 0 of 6

**Q.** What about the survivor count [11] of the same molecule?
**A.** 0 of 6

**Q.** How did the survivor count (dose: 400.0 mg/kg/injection, schedule: Q01DX001 (ip), vehicle: steroid suspending solution) turn out when `CNS(=O)(=O)c1ccccc1CC(O)(c1ccccc1)c1ccccc1` was run?
**A.** 6 of 6

**Q.** `CN(C)CC1CCCCC1=O` (stereo not given) was tested. Which survivor count [9] did it give?
**A.** 1 of 6

**Q.** `CCCCCCCCCCCCCCCC(=O)Nc1cccc2c[n+](CC(=O)c3ccc(NC(=O)CCC(=O)OC)cc3)ccc12` was tested. Which survivor count [12] did it give?
**A.** 6 of 6

**Q.** What about the survivor count [10] of the same molecule?
**A.** 6 of 6

**Q.** What about the survivor count [13] of the same molecule?
**A.** 6 of 6

**Q.** With `CC1(c2ccc(Cl)cc2)NC(=O)N(CC(N)=O)C1=O` (stereo not given) as the molecule, how does the survivor count [13] read?
**A.** 3 of 6
